Reference: US6972298B2, “Method of treating or inhibiting neutrophil chemotaxis by administering a MEK inhibitor” (Warner-Lambert Company, priority 2001, dated 2005)
“Also recorded” adds a separate entry of the source. At least one structure is not confirmed: it was looked up by name or label, or the drawing left a doubt.

How the values were obtained:
[1] = tested on: IL-8-stimulated neutrophil chemotaxis; experiment: In vitro neutrophil chemotaxis, IL-8, transwell chamber assay; format: cell-based, human
Description: Subsequently, the cells were stimulated with 3.125 nM of IL-8 for a period of 3 hours at which time the migrated cells were quantified using a cell sorter as described elsewhere. Percent inhibition was calculated based on the differences in the number of migrated cells compared to IL-8 alone controls.
The migrated cells were quantitated as described, and the percent inhibition was represented.
Number of cells migrated was measured 3 hours after IL-8 stimulation and expressed as percent control. Each value represents the average ±S.E. obtained from at least three different donors with duplicates in each set.
Polymorphonuclear leukocytes (PMNs) were isolated from whole blood obtained from healthy human donors. Plasma was separated from the remainder of the blood using a Dextran density gradient. Red blood cells (RBCs) and PMNs were further isolated by centrifugation at 2500 rpm for 15 minutes, using a Lymphoprep sedimentation solution. […]
The neutrophil chemotaxis assay was conducted with 1 million cells per well in […] polycarbonate membrane transwell plates (Corning-Costar, Cambridge, Mass.). […] Neutrophils that migrated completely across the 3-μM filter were quantitated using FACS analysis with appropriate forward and sideward scatter. Percentage inhibition relative to the positive control (IL-8 alone) was calculated for each condition after subtracting the blank reading (no IL-8).

IL-8 activation of ERK = IL-8 activation of ERK in human PMNs, Western blot with phospho-specific ERK antibody; format: cell-based
Description: Activation of MAPK was examined by phospho-specific ERK antibody in isolated human PMNs that were stimulated with 3 nM of IL-8 for various periods of time (A). […] The effect of the inhibitors was monitored by measuring p-ERK activity by Western blotting. The blots were normalized using the ERK antibody.
Polymorphonuclear leukocytes (PMNs) were isolated from whole blood obtained from healthy human donors. Plasma was separated from the remainder of the blood using a Dextran density gradient. Red blood cells (RBCs) and PMNs were further isolated by centrifugation at 2500 rpm for 15 minutes, using a Lymphoprep sedimentation solution. RBCs were lysed with 0.2% NaCl, neutralized with 1.8% NaCl, and the remaining neutrophils were resuspended in RPMI binding buffer at a final concentration of 10 million cells/mL.
Neutrophils were preincubated with the respective inhibitor for 30 minutes at room temperature in 1.5-mL microfuge tubes prior to addition of IL-8 (3.125 nM). […] Thus, neutrophils were exposed to IL-8 for 5 minutes at room temperature, after which whole cell lysates were obtained via lysis with RIPA buffer and analyzed by Western blot analysis using phospho specific antibodies, p44/42 MAP (ERK) and p38 MAPK kinase. Standard Western blotting was performed using chemiluminescence. All blots were normalized with the respective nonphosphorylated antibodies.
To confirm IL-8 activation of ERK, neutrophils were stimulated with 3 nM of IL-8 for various periods of time, ranging from 0 to 30 minutes (FIG. 1A).
(§1) The role of PI3K in IL-8 activation of ERK has been controversial. […] In parallel, kinase assays were performed to examine the MEK1/2 activity in response to IL-8.

MEK1/2 = experiment: kinase assays of MEK1/2 activity in response to IL-8; format: cell-based, human; conditions: pre-treatment with inhibitor
Description: as §1

COC[C@H]1OC(=O)c2coc3c2[C@@]1(C)C1=C(C3=O)[C@@H]2CCC(=O)[C@@]2(C)C[C@H]1OC(C)=O [Wortmannin, reference compound]
block of IL-8-induced neutrophil chemotaxis by 1 to 10 μM [1]: completely blocked
effect on IL-8-induced ERK activation at 0.01 μM (IL-8 activation of ERK; 0.01 μM inhibitor): minimal effect
inhibition of IL-8-induced ERK activation at 10 μM (IL-8 activation of ERK; higher concentrations (10 μM)): completely blocked
inhibition of IL-8 activation of ERK (IL-8 activation of ERK; inhibitor 0 to 100 μM for 30 minutes, then IL-8 for 5 minutes): dose dependent inhibition; also recorded: clearly blocked
inhibition of IL-8-induced ERK activation at lower concentrations (IL-8 activation of ERK; lower concentrations of the drug): marginally decreases
inhibition of IL-8 activation of MEK1/2 (MEK1/2): inhibited
